Reference: publication PMC8274477
These are yes or no findings as the source states them, for the method shown. Some binding calls cover weakened binding; strength is not graded here. For some assays here: Tags and fused reporters may be left off the sequences shown.

Sequences of proteins named here, by UniProt entry; tags and fusion partners are left off.
UniProt Q9BYN0: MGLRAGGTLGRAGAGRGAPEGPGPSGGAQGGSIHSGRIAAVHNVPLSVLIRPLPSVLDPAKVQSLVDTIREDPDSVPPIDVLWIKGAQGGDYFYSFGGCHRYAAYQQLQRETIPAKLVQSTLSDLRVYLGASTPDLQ

Key:
Test in all cases: peptide or protein array; HuProt human proteome microarray; 5 ug/5 ml biotin-labelled LUBAC or OTULIN in solution, 1 h at room temperature; Cy5-streptavidin, scanned at 635 nm; BSA as negative control; hits: Z-score >= 3 and I_(Mean_Ratio) >= 1.4; both purified
SLFN5 (human) = target: T1, SLFN5 (human) (UniProt Q08AF3)
T1 sequence: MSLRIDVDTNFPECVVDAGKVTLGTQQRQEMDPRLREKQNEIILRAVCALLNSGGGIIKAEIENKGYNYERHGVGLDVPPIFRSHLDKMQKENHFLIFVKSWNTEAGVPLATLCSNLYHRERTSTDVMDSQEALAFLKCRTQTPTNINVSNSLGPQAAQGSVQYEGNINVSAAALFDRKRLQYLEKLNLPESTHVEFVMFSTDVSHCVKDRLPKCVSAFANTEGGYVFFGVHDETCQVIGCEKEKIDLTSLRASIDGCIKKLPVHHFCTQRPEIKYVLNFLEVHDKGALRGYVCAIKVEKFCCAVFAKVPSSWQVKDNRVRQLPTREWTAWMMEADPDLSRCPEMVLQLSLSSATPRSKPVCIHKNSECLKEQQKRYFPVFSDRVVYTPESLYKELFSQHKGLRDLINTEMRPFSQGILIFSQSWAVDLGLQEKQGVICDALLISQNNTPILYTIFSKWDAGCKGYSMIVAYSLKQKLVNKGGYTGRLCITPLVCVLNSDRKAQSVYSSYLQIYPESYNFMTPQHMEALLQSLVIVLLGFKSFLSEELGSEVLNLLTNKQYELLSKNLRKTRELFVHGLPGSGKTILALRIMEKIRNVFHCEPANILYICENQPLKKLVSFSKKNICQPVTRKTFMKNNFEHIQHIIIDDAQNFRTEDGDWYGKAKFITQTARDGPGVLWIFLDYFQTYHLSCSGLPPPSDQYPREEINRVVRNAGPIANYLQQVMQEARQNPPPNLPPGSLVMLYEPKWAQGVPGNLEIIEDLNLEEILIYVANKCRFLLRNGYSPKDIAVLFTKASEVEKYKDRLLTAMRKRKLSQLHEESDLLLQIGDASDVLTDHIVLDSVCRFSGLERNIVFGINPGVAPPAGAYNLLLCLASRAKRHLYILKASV

BCAR3 (human) = target: T2, BCAR3 (human) (UniProt O75815)
T2 sequence: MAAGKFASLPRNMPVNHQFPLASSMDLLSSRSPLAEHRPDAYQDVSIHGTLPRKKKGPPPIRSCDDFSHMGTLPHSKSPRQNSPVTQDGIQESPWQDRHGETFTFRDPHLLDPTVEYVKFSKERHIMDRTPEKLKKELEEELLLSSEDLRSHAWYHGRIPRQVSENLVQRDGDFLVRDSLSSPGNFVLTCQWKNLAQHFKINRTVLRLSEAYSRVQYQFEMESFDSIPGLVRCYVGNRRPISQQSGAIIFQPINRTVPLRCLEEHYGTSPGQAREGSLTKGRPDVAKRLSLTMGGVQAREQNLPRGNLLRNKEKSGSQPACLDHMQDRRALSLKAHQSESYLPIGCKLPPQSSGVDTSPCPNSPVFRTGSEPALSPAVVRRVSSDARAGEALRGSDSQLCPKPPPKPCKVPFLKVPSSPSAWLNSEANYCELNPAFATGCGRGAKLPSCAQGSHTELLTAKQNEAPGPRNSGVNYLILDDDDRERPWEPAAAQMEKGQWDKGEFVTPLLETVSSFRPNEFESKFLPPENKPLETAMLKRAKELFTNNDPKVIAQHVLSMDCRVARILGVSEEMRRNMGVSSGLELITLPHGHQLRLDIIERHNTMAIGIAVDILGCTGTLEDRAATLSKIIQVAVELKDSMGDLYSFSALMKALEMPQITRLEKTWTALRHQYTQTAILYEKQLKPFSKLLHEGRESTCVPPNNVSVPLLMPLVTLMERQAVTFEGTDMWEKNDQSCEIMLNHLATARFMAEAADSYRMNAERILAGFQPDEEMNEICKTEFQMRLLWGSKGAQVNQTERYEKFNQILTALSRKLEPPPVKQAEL

C21orf59 (human) = target: T3, C21orf59 (human) (UniProt P57076)
T3 sequence: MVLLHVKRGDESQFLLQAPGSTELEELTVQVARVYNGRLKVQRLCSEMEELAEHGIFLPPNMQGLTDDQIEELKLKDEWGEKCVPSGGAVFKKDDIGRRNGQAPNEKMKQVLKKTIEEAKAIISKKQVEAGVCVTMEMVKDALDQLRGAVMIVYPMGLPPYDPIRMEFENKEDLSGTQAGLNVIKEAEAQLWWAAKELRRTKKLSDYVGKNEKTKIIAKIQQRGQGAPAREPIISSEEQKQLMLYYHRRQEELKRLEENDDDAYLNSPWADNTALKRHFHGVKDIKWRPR

GSTZ1 (human) = target: T4, GSTZ1 (human) (UniProt O43708)
T4 sequence: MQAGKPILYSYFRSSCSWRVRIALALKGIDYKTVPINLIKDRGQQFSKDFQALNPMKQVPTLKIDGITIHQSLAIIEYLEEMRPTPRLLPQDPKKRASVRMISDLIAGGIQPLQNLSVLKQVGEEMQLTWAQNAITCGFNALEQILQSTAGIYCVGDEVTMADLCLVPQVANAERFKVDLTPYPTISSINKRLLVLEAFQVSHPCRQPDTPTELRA

SRXN1 (human) = SRXN1 (human) (UniProt Q9BYN0)

- binding (SLFN5 (human)): binds
- binding (BCAR3 (human)): binds
- binding (C21orf59 (human)): binds
- binding (GSTZ1 (human)): binds
- binding (SRXN1 (human)): binds
Substance: linear ubiquitin chain assembly complex (LUBAC), purified as HIS-tagged HOIP with the subunit HOIL-1, biotin-labelled (from UniProt Q96EP0 1-1072; Q9BYM8 1-510)
